Results are given in words; binding and its absence hold for the method and conditions named. Some binding calls cover weakened binding; strength is not graded here.
Assays:
[1] = target: Cry3Aa (Bacillus thuringiensis) (UniProt P0A379); assay: co-expression in Bt; SDS-PAGE of purified crystals
[2] = target: negatively-charged Cry3Aa mutant (negCry3Aa) (Bacillus thuringiensis) (UniProt P0A379); assay: co-expression in Bt; SDS-PAGE of purified crystals
[3] = target: Cry3Aa (Bacillus thuringiensis) (UniProt P0A379); assay: co-expression in Bt; lipase activity of purified crystals; release by NaCl
[4] = target: Cry3Aa (Bacillus thuringiensis) (UniProt P0A379); assay: lipase activity of crystals and of the supernatant after incubation with NaCl

Measured: binding

lipase A from Bacillus subtilis fused to a poly-arginine tail with 9 consecutive arginine residues (lipAR9) (from UniProt P37957 32-212) (enzyme)
binds: all assays above
